# Measurements published in PubChem BioAssay AID1688 (National Center for Advancing Translational Sciences (NCATS), 2009).
# The campaign covered roughly 220,000 compounds. About 2,400 (1.1%) were called active. Inconclusive results, whose numbers are uncertain, are shown with a selection of clear calls. Calls follow the shape of the dose curve; as a rule, active = well fitted inhibition curve with a large enough effect; inconclusive = small, poorly fitted or top-dose-only effect, or effect the other way; inactive = no such curve, though single readings can be large or run the other way. Potencies of inconclusive entries are doubtful fits and often do not repeat.
# Experiment: qHTS Multiplex Assay to Identify Dual Action Probes in a Cell Model of Huntington: Aggregate Formation (GFP); also: nearly all actives have a fitted effect of over 60% in size
# Settings: PC12 HttQ103-GFP aggregates, Acumen cytometry, 40 h; activity change, negative = inhibition: at 46.1 µM (top of the series)
# In short: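 Ecdysone-promoter PC12 model expressing HTT exon 1 Q103 fused to GFP, induced by tebufenozide at 100 nM final. Compounds titrated; aggregates sized 1–25 µm scored on a 488 nm laser cytometer.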
# % is scaled to controls: 0 for no effect and ±100 for the full control effect; potency is read from the fitted curve at half-maximal effect.
SMILES,Potency,"activity change, negative = inhibition"
COc1ccc(-c2nnn(CC(=O)OC3CCCCC3)n2)cc1OC,"inconclusive: 1.26 µM [inhibitor, single point]",–
C=C1C(=O)O[C@@H]2C[C@@H](C)[C@@H]3C=CC(=O)[C@@]3(C)[C@@H](O)[C@H]12,active: 2.24 µM,–
Cc1nc2cc([N+](=O)[O-])ccc2c(=O)n1-c1ccccc1[N+](=O)[O-],–,inactive: 9.97% [at 9.22 µM]
CCOC(=O)c1c(NC(=O)C(c2ccccc2)c2ccccc2)sc2c1C1CCN2CC1,"inconclusive: 17.8 µM [inhibitor, single point]",–
CC(=O)Nc1ccccc1OP1(=O)COc2ccccc2OC1,–,inactive: 0.0549%
CCOc1ccc(-c2cc(C)[n+](CCO)c(-c3ccc(OCC)cc3)c2)cc1,"inconclusive: 25.1 µM [inhibitor, single point]",–
Cc1cc(C=C(C#N)C#N)ccc1N1CCCC1,"inconclusive: 5.62 µM [inhibitor, single point]",–
CCC(=NCc1ccc2c(c1)OCO2)c1c(O)n(C2CCCCC2)c(=O)[nH]c1=O,"inconclusive: 35.5 µM [inhibitor, single point]",–
CC(=O)Cc1c[nH]c2ccccc12,–,inactive: -9.45% [at 9.22 µM]
Cc1ccc(C(C)C)c(OCCn2c(=O)oc3ccccc32)c1,"inconclusive: 15.8 µM [inhibitor, partial curve]",–
Cn1c(O)c(C=NC2CCCCC2)c(=O)[nH]c1=S,–,inactive: -11.3% [at 9.22 µM]
CCOC(=O)C(O)(c1ccc(N(CC)C(=O)OC)cc1)C(F)(F)F (stereo not given),active: 1.58 µM,–
CN1CCN(c2ccc(/C=C3\C(=O)NC(=S)N(c4cccc(Br)c4)C3=O)o2)CC1,"inconclusive: 15.8 µM [activator, partial curve]",–
CCN(CC)S(=O)(=O)c1cc(NC(=O)C(C)N2CC=C(c3ccccc3)CC2)ccc1C (stereo not given),"inconclusive: 35.5 µM [inhibitor, single point]",–
F/C(COc1ccc2c(c1)[nH]c1ccccc12)=C1/CN2CCC1CC2,"inconclusive: 28.2 µM [inhibitor, partial curve, poor fit]",–
Nc1ccc2cc(Br)ccc2c1,–,inactive: -25%
CSc1ncc(/C=C2/C(=O)NC(=O)N(c3ccc(C)cc3)C2=O)cn1,–,inactive: 18.4%
Cc1ccc2c(c1)=C/C(=C\c1c(O)[nH]c(=S)[nH]c1=O)C(=O)N=2,–,inactive: -21.2%
COc1ccc(-n2c(-c3ccc(C)cc3)nc3ccccc3c2=O)cc1,–,inactive: -1.26% [at 9.22 µM]
c1ccc2nc(N3CCNCC3)ccc2c1,"inconclusive: 35.5 µM [inhibitor, single point]",–

# Part of the list above, bar-delimited.
SMILES | Potency | activity change, negative = inhibition
Cc1ccc2c(c1)=C/C(=C\c1c(O)[nH]c(=S)[nH]c1=O)C(=O)N=2 | – | inactive: -21.2%
COc1ccc(-n2c(-c3ccc(C)cc3)nc3ccccc3c2=O)cc1 | – | inactive: -1.26% [at 9.22 µM]
